Assay [1] deals with APP695myc (myc-tagged amyloid precursor protein, APP695) (human) (UniProt P05067). As to the kind of experiment: condition: only lysates of separately transfected cells mixed post-lysis; co-IP; control: lysates of cells separately expressing APP (L1) or meprin β (L2) mixed post-lysis, then precipitated with 9E10 or anti-meprin β antibody.
The target is the same in assay [2]. The assay is described as follows: co-IP; HEK-293T cells co-transfected with meprin β and APP695myc; NP-40 lysis buffer; 200 μg lysate with protein G sepharose and 9E10 (anti-myc) or polyclonal anti-meprin β antibody over night; Western blot. A general note: Immunoblotting shows a protein as a band on a membrane.
Assay [3] has as its target APP695 CT split GFP11 (human) (UniProt P05067). As to the kind of experiment: split reporter; split GFP: HEK-293T cells co-transfected with APP695 CT split GFP11 and meprin β CT split GFP1-10; fixed 24 h post transfection, confocal microscopy with organelle markers (PDI, GM130, EEA1).

Results are given in words; binding and its absence hold for the method and conditions named. In cells and extracts the contact can be indirect. Some binding calls cover weakened binding; strength is not graded here. For part of these data: Sequences can lack the tags named with a protein.

B1: meprin β (enzyme, UniProt Q16820 62-701)
chain: NSIIGEKYRWPHTIPYVLEDSLEMNAKGVILNAFERYRLKTCIDFKPWAGETNYISVFKGSGCWSSVGNRRVGKQELSIGANCDRIATVQHEFLHALGFWHEQSRSDRDDYVRIMWDRILSGREHNFNTYSDDISDSLNVPYDYTSVMHYSKTAFQNGTEPTIVTRISDFEDVIGQRMDFSDSDLLKLNQLYNCSSSLSFMDSCSFELENVCGMIQSSGDNADWQRVSQVPRGPESDHSNMGQCQGSGFFMHFDSSSVNVGATAVLESRTLYPKRGFQCLQFYLYNSGSESDQLNIYIREYSADNVDGNLTLVEEIKEIPTGSWQLYHVTLKVTKKFRVVFEGRKGSGASLGGLSIDDINLSETRCPHHIWHIRNFTQFIGSPNGTLYSPPFYSSKGYAFQIYLNLAHVTNAGIYFHLISGANDDQLQWPCPWQQATMTLLDQNPDIRQRMSNQRSITTDPFMTTDNGNYFWDRPSKVGTVALFSNGTQFRRGGGYGTSAFITHERLKSRDFIKGDDVYILLTVEDISHLNSTQIQLTPAPSVQDLCSKTTCKNDGVCTVRDGKAECRCQSGEDWWYMGERCEKRGSTRDTIVIAVSSTVAVFALMLIITLVSVYCTRKKYRERMSSNRPNLTPQNQHAF
For the molecule B1, the results for the binding result in assay [1] and in assay [2] were “no binding” and “binds”, respectively.

B2: meprin β CT split GFP1-10 (enzyme, UniProt Q16820 62-701)
chain: B1 chain
B2: the binding entry in assay [3] was “binds”.
